# In US12508266B2 (priority 2010, dated 2025):
# System: Human hepatocellular carcinoma (Huh-7) cells
# Experiment: Phosphorylation and DNA/RNA incorporation of 3H-compound 1
# Assay type: cell-based
# Conditions: 3H compound 1, after 24 h
smiles,measurement,value
"Nc1ncnc2c([C@@H]3N[C@H](CO)[C@@H](O)[C@H]3O)c[nH]c12 [Compound 1, (2S,3S,4R,5R)-2-(4-Amino-5H-pyrrolo[3,2-d]pyrimidin-7-yl)-5-(hydroxymethyl) pyrrolidine-3,4-diol]",total RNA and genomic DNA incorporation in Huh-7 cells,not incorporated into mammalian RNA or DNA
